# Experimental data taken from PubChem BioAssay AID445 (National Center for Advancing Translational Sciences (NCATS), 2006).
# Some of the results follow. The main result of the screen is listed elsewhere. These columns were measured beside it and carry no call. Most of these compounds were active or inconclusive in the main read-out, so they are no random draw. The note in brackets gives the kind of curve behind each potency; many fits are weak.
# Test: IkB Signaling
# Conditions: ABC-DLBCL IkBa-CBG/CBR dual luciferase ratio (green luciferase fused to IkBa over red control in OCI-Ly3 lymphoma cells), 4 h
# How it was run: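 Curves were fitted separately to fusion (green), unfused (red) and ratio luminescence, then classed by r2, magnitude and activity. Cells: OCI-Ly3, 4 h compound plus doxycycline at 37C; 10 uM MG-132 defined full response.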
# [1] = measured here: control luc red channel unless noted
# [2] = measured here: IkB-luc green channel
# [3] = measured here: control luc red channel
smiles,measurement,setting,value
CCOC(=O)c1cnc(-n2nc(C)cc2C)nc1NCCc1ccccc1,AC50,[1],"10 µM [falling, partial curve]"
COc1ccccc1CNC(=O)Cn1c(=O)oc2ccccc21,AC50,[1],"10 µM [falling, partial curve]"
Cc1nn(-c2nc3ccccc3[nH]2)c(N)c1-c1ccccc1,AC50,[2],"31.6 µM [rising, single point]"
same,AC50,[3],"12.6 µM [falling, partial curve]"
O=C(CSc1nc2c(c(=O)[nH]1)CCCC2)Nc1cccc(O)c1,AC50,[1],"25.1 µM [falling, single point]"
COCCCNC(=O)C1CCN(c2nnc(-n3cccc3CNc3ccc(C)cc3)s2)CC1,AC50,[1],"39.8 µM [falling, single point]"
COc1cc2[nH]c(=O)n(CCCC(=O)NCc3ccccc3Cl)c(=O)c2cc1OC,AC50,[1],"6.31 µM [falling, full curve]"
COc1ccccc1N1CCN(C(=O)CCSCc2ccccc2F)CC1,AC50,[1],"39.8 µM [falling, single point]"
COc1ccc(S(=O)(=O)Nc2cc(C(C)C)c(O)cc2C)cc1,AC50,[1],"25.1 µM [falling, partial curve]"
Cc1oc(-c2ccccc2F)nc1Cn1c(SCc2ccccc2F)nc2ccncc21,AC50,[1],"10 µM [falling, partial curve]"
COc1ccc(Nc2oc(/C=C/c3ccc(F)cc3)nc2C#N)cc1,AC50,[1],"31.6 µM [falling, single point]"
CC(=O)Nc1ccc(S(=O)(=O)N2CCN(c3cc(C)ccc3C)CC2)cc1,AC50,[1],"10 µM [falling, partial curve]"
Cc1ccc2nc(N3CCN(C(=O)C4COc5ccccc5O4)CC3)sc2c1 (stereo not given),AC50,[1],"25.1 µM [falling, single point]"
COC(=O)c1ccc(CSc2nc3c([nH]c4ccccc43)c(=O)n2-c2cccc(OC)c2)o1,AC50,[1],"15.8 µM [rising, partial curve, poor fit]"
Cc1ccnc(NS(=O)(=O)c2ccc(NC(=O)c3cc(=O)c4ccc(C)c(C)c4o3)cc2)n1,AC50,[1],"15.8 µM [falling, partial curve]"
Cc1ccc(-c2nc(-c3ccccn3)no2)cc1Cl,AC50,[1],"2 µM [falling, full curve]"
COc1ccc(-c2nc3ccccc3o2)cc1NC(=O)c1ccc(N2CCC(C)CC2)c([N+](=O)[O-])c1,AC50,[1],"3.98 µM [rising, partial curve]"
O=C(CN1CCCN(S(=O)(=O)c2ccc(F)cc2)CC1)Nc1ccccc1Br,AC50,[1],"31.6 µM [falling, single point]"
CCc1nc(C)cn1S(=O)(=O)c1cc(Br)c(C)cc1OC,AC50,[1],"20 µM [falling, partial curve]"
Cc1nn(Cc2ccccc2)c(C)c1NC(=O)c1cc(C(C)C)on1,AC50,[1],"25.1 µM [falling, single point]"
Cc1ccc(C(=O)c2cn(Cc3ccc(F)cc3)c3nc(C)ccc3c2=O)cc1,AC50,[1],"31.6 µM [falling, partial curve]"
CCOc1ccc(C(=O)Nc2c(C(N)=O)oc3ccccc23)cc1,AC50,[1],"10 µM [falling, partial curve]"
O=C(CN1C(=O)COc2ccc(S(=O)(=O)Nc3ccccc3)cc21)NCc1ccccc1Cl,AC50,[1],"25.1 µM [falling, single point]"
CCOC(=O)c1ccc(N2C(=O)c3[nH]nc(-c4ccccc4)c3C2c2cccs2)cc1 (stereo not given),AC50,[1],"15.8 µM [falling, partial curve]"
COc1ccc(CCNc2nc(SCc3ccccc3Cl)nc3ccccc23)cc1OC,AC50,[1],"6.31 µM [rising, partial curve, poor fit]"
O=C(CSc1nc2c(c(=O)[nH]1)CN(Cc1ccc(F)cc1)CC2)Nc1cccc(C(F)(F)F)c1,AC50,[1],"10 µM [falling, partial curve]"
Cc1cc(C)nc(-n2nc(C)c3c2NC(=O)CC3c2ccccc2OC(C)C)n1 (stereo not given),AC50,[1],"15.8 µM [falling, partial curve]"
Cc1ccc(S(=O)(=O)NCCC(=O)Nc2nnc(C3CC3)s2)cc1C,AC50,[1],"10 µM [falling, partial curve]"
COC(=O)c1ccccc1NC(=O)c1cc(-c2ccc(OC)c(OC)c2)on1,AC50,[1],"3.16 µM [falling, partial curve]"
COc1ccc(-c2[nH]c(-c3ccccc3)nc2SCC(=O)NC2CCCC2)cc1,AC50,[1],"39.8 µM [falling, partial curve]"
COc1ccc(CCNC(=O)c2cc3c(=O)n(C)c4cc(Cl)ccc4c3s2)cc1OC,AC50,[1],"6.31 µM [rising, full curve]"
COc1ccc(-c2cc(NCc3ccc(C)cc3)n3cnnc3n2)cc1,AC50,[1],"39.8 µM [falling, single point]"
COc1cccc(NC(=O)C(=O)NCCc2sc(-c3cccc(C)c3)nc2C)c1,AC50,[1],"0.398 µM [falling, full curve]"
COc1ccc(Nc2nc(N)nc(CSc3nc4ccccc4s3)n2)cc1,AC50,[1],"25.1 µM [falling, partial curve]"
CCc1ccc(-c2nc(CN3CCCC(C(=O)NCCc4ccc(OC)c(OC)c4)C3)c(C)o2)cc1 (stereo not given),AC50,[1],"12.6 µM [falling, partial curve]"
COc1ccccc1CNc1ncnc2ccc(-c3c(C)noc3C)cc12,AC50,[1],"631 nM [rising, full curve] [measured here: IkB-luc green channel]"
COC(=O)c1ccccc1S(=O)(=O)N1CCC(c2nc3ccccc3o2)CC1,AC50,[1],"10 µM [falling, partial curve]"
COc1ccc2nc(Nc3nc(C)c(C(C)=O)s3)sc2c1,AC50,[2],"3.98 µM [rising, single point]"
same,AC50,[3],"39.8 µM [falling, single point]"
O=C(c1ccc2c(c1)N(Cc1ccccc1F)C(=O)c1ccccc1S2(=O)=O)N1CCCCCC1,AC50,[1],"3.16 µM [falling, single point]"
C[C@@H]1CN(CCCn2c3ccccc3c3ccccc32)C[C@H](C)N1,AC50,[1],"50.1 µM [falling, partial curve, poor fit]"
Cc1cc(N2CCCCC2)nc2ccc(NC(=O)CCC(=O)N3CCN(c4cccc(Cl)c4)CC3)cc12,AC50,[1],"15.8 µM [falling, partial curve]"
CS(=O)(=O)c1nc(-c2ccco2)cc(C(F)(F)F)n1,AC50,[2],"6.31 µM [rising, single point]"
same,AC50,[3],"10 µM [falling, partial curve]"
CCOc1ccc(CCNC(=O)c2ccc3[nH]c(C)c(C)c3c2)cc1,AC50,[1],"31.6 µM [falling, partial curve, poor fit]"
Cc1ccc2scc(N3CCN(c4ccccc4)CC3)c(=O)c2c1,AC50,[1],"39.8 µM [falling, single point]"
CCCN1C(=O)C(O)(C/C(C)=N/O)c2ccccc21 (stereo not given),AC50,[1],"200 nM [rising, full curve] [measured here: IkB-luc green channel]"
O=C(C1COc2ccccc2O1)N(Cc1cccnc1)c1nc2ccc(F)cc2s1 (stereo not given),AC50,[1],"39.8 µM [falling, single point]"
Fc1ccccc1CSc1nnc(-c2cccs2)o1,AC50,[1],"1.26 µM [rising, partial curve]"
N#CC1=C(SCC(=O)Nc2cccc3cccnc23)NC(=O)C(C#N)C12CCCCC2 (stereo not given),AC50,[1],"15.8 µM [falling, partial curve]"
Cc1ccc(-c2nnc(N3CCN(C(=O)c4ccco4)CC3)c3ccccc23)cc1,AC50,[1],"15.8 µM [falling, partial curve]"
CCCCC(=O)NC1(C(F)(F)F)C(=O)Nc2c1c(=O)[nH]c(=O)n2-c1ccc(F)cc1 (stereo not given),AC50,[1],"3.16 µM [falling, partial curve]"
CCC1CCCCN1C(=O)Cn1c(=O)n(-c2ccccc2C(F)(F)F)c(=O)c2c(C)c(C(=O)N(C)C)sc21 (stereo not given),AC50,[1],"12.6 µM [falling, partial curve, poor fit]"
CCOc1ccc(NC(=O)C(CC)n2nc(-c3ccc(C)c(C)c3)ccc2=O)cc1 (stereo not given),AC50,[1],"39.8 µM [falling, partial curve]"
Cc1ccc(-c2cc(C(=O)NCC3CCCO3)no2)cc1 (stereo not given),AC50,[1],"12.6 µM [falling, partial curve]"
COc1ccccc1N1CCN(C(c2ccccc2)c2nnc(-c3ccccc3Cl)o2)CC1 (stereo not given),AC50,[1],"12.6 µM [falling, partial curve, poor fit]"
Cc1ccc(NC(=O)Cn2c(=O)n(Cc3nc(-c4ccccc4)no3)c(=O)c3cc4c(cc32)OCO4)cc1C,AC50,[1],"12.6 µM [falling, partial curve]"
COc1ccc(NC(=O)c2sc3nc[nH]c(=O)c3c2C)cc1,AC50,[1],"1 µM [rising, single point]"
Cc1cc(C)cc(OCC(=O)Nc2ccccc2C(=O)NCc2ccco2)c1,AC50,[1],"10 µM [falling, partial curve]"
Cc1cc(N2CCN(C(=O)c3ccco3)CC2)n2ncc(-c3ccccc3)c2n1,AC50,[1],"20 µM [falling, partial curve]"
O=C1CC(c2ccccc2)Cc2[nH]c(=O)c(-c3nc(-c4ccc(F)cc4)cs3)cc21 (stereo not given),AC50,[2],"3.98 µM [rising, full curve, poor fit]"
same,AC50,[3],"7.94 µM [falling, partial curve]"
O=C(CN1C(=O)COc2ccc(S(=O)(=O)N3CCCC3)cc21)N1CCN(c2ccccc2F)CC1,AC50,[1],"3.98 µM [falling, partial curve, poor fit]"
C=CCn1c(SCC(=O)NCCOC)nc2scc(-c3ccco3)c2c1=O,AC50,[1],"1.26 µM [falling, partial curve]"
COc1ccc(-c2noc(-c3ccc(N4CCCCC4)c([N+](=O)[O-])c3)n2)cc1,AC50,[1],"1.26 µM [falling, full curve]"

# 4 entries drawn at random from those above, as already listed:
smiles,measurement,setting,value
O=C(C1COc2ccccc2O1)N(Cc1cccnc1)c1nc2ccc(F)cc2s1 (stereo not given),AC50,[1],"39.8 µM [falling, single point]"
COc1ccccc1CNc1ncnc2ccc(-c3c(C)noc3C)cc12,AC50,[1],"631 nM [rising, full curve] [measured here: IkB-luc green channel]"
Cc1ccc(-c2nc(-c3ccccn3)no2)cc1Cl,AC50,[1],"2 µM [falling, full curve]"
N#CC1=C(SCC(=O)Nc2cccc3cccnc23)NC(=O)C(C#N)C12CCCCC2 (stereo not given),AC50,[1],"15.8 µM [falling, partial curve]"
